Test results: EP4843985A1, “TRIAZOLOPYRIMIDINE DERIVATIVE, PREPARATION METHOD THEREFOR AND USE THEREOF” (dated 2026)
Structures were worked out from names or drawings and are uncertain.

Legend:
[1] = Plasma protein binding rate (equilibrium dialysis), monkey; settings: 5 µM, 6 hours dialysis
Description: (§1) The purpose of this test was to evaluate the protein binding rate of the test drug in plasma of human, monkey, dog, rat and mouse using the equilibrium dialysis method.
(§2) Plasma (EDTA-K2 anticoagulated) was stored in a -80°C freezer. Stop solution, acetonitrile (containing 100 nM alprazolam, 200 nM caffeine, and 100 nM tolbutamide as internal standards).
(§3) The test article and the control compound ketoconazole were prepared as high-concentration DMSO stock solutions and diluted to 1 mM working solution, with a final test concentration of 5 µM.
(§4) NaH2PO4 (12.0 g) and NaCl (8.77 g) were weighed and dissolved in 1 L of water to prepare an alkaline solution. Na2HPO4 (14.2 g) and NaCl (8.77 g) were weighed and dissolved in 1 L of water to prepare an acidic solution. The alkaline solution and the acidic solution were titrated to pH 7.4.
(§5) The temperatures of the water bath and incubator were pre-adjusted to 37°C. The plasma was removed from -80°C, rapidly thawed in a 37°C water bath, and centrifuged at 2000 g for 5 minutes at room temperature. The clot was removed, and the supernatant was transferred to a new centrifuge tube. The pH of the plasma was tested and recorded. (Note: a. Only plasma with a pH range of 7.2-7.8 was used. b. Only plasma that had been thawed no more than twice after receipt was used.)
(§6) The equilibrium dialysis membrane was soaked in pure water for 60 minutes, then in 20% ethanol for 20 minutes, and finally in dialysis buffer for 20 minutes. The soaked dialysis membrane was then spread flat on a clean HTDialysis clamping device, and the dialysis device was assembled according to the product manual.
(§7) 3 µL of the working solution of the test drug and the control drug was taken and added to 597 µL of pre-incubated plasma, and mixed thoroughly. The final organic solvent content in the incubation system was 0.5%. […]
(§8) All data calculations were performed using Microsoft Excel software. The concentrations of the drug in free samples and plasma samples were determined. […]

[2] = system: human endometrial Ishikawa cell subcutaneous xenograft tumor; experiment: In vivo pharmacodynamic study in the Ishikawa xenograft tumor model
Description: To evaluate the in vivo efficacy of the compounds in a human endometrial Ishikawa cell subcutaneous xenograft tumor mouse model.
• Species: Mouse • Strain: Balb/c Nude mouse • Age and body weight: 6-8 weeks of age, weighing 20-24 g • Sex: Female • Quantity: 115 (including remaining mice from grouping) • Supplier: Zhejiang Vital River Laboratory Animal Technology Co., Ltd. • Animal certificate: 20240822Abzz0619000609
Human endometrial cancer Ishikawa cells (ECACC, 99040201) were cultured in vitro under the following conditions: DMEM medium supplemented with 10% fetal bovine serum, 1% antibiotics, 2 mM glutamine, 1% non-essential amino acids, 1 mM sodium pyruvate, and 1.5 g/L sodium bicarbonate, at 37°C in a 5% CO2 cell incubator. Routine passaging was performed by centrifugation twice a week. When the cell confluence reached 80% to 90% and the cell number met the requirement, the cells were harvested, counted, and inoculated.
A 0.2 mL cell suspension containing 1.0*10^7 Ishikawa cells (the cells were suspended in medium DMEM:Matrigel = 1:1) was subcutaneously inoculated into the right dorsal flank of each mouse. […]
The health status and mortality of the animals were monitored daily. Routine inspections included observing the effects of tumor growth and drug treatment on the animals' daily behavioral performance, such as behavioral activity, food and water intake (visual inspection only), body weight changes (body weight was measured three times per week), appearance signs, or other abnormal conditions. Based on the number of animals in each group, the number of animal deaths and side effects within the group were recorded.
Tumor diameters were measured twice per week using a vernier caliper. […]
The anti-tumor efficacy of the compounds was evaluated by the tumor growth inhibition rate TGI (%). […]
At the end of the experiment, tumors were excised from the mice, weighed, and the tumor inhibition rate was calculated. […]

[3] = Plasma protein binding rate (equilibrium dialysis), dog; settings: 5 µM, 6 hours dialysis
Description: as §1, §2, §3, §4, §5, §6, §7, §8

Bound percentage [1]: 96.40
Free percentage [1]: 3.60
Recovery rate [1]: 92.3%
Bound percentage [3]: 91.91
Free percentage [3]: 8.09
Recovery rate [3]: 90%
SMILES: [2H]C1([2H])CCC(c2nc3n4c(c(N5CCN(C(=O)c6ncnc(C)c6O)[C@H]6CC[C@@H]65)c(=O)n3n2)[C@H](C)C[C@@H]4C(=O)Nc2scc(C(F)(F)F)c2C)=CCO1
anti-tumor effects (in words) ([2]; 1 mg/kg): significant anti-tumor effects
anti-tumor effects (in words) ([2]; 3 mg/kg): significant anti-tumor effects
anti-tumor effects (in words) ([2]; 10 mg/kg): significant anti-tumor effects
